According to the supplement of paper PMC10849652:
Some of the results follow. Residues, ends and D or L forms follow the SMILES beside them. *: point of attachment. Cbz = O=C(OCc1ccccc1)*

Amino acid sequences for entries named in this document (tags omitted). A change or cut given only in a name is not applied to a line headed by its entry.
UniProt O43639, whole entry, looked up: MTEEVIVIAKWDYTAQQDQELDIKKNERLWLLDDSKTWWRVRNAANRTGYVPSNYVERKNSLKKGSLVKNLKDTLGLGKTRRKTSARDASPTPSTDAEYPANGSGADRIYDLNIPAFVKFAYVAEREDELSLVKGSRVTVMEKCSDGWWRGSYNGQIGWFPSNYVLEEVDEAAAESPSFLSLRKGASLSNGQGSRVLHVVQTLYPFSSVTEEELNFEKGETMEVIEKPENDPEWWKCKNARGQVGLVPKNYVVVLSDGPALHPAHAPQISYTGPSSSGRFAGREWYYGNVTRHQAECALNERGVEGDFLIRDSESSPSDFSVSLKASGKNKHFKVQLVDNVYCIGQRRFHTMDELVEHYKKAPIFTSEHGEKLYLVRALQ
UniProt Q13772: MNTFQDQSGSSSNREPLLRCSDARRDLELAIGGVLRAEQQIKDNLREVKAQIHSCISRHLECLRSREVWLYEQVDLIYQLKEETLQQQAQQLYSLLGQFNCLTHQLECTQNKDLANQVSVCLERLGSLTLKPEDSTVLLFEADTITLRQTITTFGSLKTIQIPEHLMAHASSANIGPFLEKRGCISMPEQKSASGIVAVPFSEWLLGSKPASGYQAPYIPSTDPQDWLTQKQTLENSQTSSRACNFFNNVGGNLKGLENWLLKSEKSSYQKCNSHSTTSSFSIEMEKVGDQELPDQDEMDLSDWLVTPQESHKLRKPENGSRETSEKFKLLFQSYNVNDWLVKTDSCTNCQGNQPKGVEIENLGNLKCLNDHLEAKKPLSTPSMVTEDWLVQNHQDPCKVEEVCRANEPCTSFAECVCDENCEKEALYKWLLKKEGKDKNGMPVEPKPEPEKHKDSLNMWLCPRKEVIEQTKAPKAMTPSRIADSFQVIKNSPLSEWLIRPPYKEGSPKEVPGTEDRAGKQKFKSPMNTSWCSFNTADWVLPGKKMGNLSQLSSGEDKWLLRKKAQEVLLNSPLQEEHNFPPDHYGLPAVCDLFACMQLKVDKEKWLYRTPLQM
UniProt Q6ZVX7: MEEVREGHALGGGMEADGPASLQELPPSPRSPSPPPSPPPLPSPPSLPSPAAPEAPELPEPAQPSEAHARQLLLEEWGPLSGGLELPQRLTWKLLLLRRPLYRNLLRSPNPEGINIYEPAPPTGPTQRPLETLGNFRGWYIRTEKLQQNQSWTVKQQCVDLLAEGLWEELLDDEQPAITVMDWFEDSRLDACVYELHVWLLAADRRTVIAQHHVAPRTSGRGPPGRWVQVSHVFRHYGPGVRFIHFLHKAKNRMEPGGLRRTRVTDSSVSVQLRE
UniProt O43677, whole entry, looked up: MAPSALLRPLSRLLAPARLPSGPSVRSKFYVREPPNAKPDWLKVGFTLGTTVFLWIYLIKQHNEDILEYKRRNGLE
UniProt Q8N6N6: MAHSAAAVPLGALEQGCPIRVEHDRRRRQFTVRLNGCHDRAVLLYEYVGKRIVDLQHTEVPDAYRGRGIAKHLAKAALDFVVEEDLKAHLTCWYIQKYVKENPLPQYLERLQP
UniProt Q4G0T1: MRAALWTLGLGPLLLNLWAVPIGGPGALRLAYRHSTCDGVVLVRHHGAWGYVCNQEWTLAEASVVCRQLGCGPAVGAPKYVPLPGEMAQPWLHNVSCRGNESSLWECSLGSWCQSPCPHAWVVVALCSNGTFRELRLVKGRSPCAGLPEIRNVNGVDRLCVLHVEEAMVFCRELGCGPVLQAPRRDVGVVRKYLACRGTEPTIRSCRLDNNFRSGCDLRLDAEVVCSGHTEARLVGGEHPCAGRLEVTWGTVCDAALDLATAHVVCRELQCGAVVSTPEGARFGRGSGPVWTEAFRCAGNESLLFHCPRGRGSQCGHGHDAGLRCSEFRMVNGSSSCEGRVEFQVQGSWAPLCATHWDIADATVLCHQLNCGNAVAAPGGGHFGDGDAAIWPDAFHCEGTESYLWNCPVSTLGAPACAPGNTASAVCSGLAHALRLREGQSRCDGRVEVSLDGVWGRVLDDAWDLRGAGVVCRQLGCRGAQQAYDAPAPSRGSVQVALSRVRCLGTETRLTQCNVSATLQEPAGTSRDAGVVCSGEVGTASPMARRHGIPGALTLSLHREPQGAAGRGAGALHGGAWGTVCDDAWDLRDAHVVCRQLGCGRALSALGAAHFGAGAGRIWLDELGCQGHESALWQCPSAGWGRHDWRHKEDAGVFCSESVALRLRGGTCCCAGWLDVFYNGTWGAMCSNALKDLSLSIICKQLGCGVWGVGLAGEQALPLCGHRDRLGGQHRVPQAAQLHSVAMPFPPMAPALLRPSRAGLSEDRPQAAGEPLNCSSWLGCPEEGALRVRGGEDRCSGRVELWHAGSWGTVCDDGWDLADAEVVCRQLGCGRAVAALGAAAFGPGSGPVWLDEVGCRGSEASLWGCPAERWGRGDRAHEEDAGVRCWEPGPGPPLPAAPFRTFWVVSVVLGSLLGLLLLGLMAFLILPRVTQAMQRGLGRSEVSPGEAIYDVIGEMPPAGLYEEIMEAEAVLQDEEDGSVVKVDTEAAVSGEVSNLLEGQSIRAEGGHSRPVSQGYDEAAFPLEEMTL
UniProt Q6IBW4: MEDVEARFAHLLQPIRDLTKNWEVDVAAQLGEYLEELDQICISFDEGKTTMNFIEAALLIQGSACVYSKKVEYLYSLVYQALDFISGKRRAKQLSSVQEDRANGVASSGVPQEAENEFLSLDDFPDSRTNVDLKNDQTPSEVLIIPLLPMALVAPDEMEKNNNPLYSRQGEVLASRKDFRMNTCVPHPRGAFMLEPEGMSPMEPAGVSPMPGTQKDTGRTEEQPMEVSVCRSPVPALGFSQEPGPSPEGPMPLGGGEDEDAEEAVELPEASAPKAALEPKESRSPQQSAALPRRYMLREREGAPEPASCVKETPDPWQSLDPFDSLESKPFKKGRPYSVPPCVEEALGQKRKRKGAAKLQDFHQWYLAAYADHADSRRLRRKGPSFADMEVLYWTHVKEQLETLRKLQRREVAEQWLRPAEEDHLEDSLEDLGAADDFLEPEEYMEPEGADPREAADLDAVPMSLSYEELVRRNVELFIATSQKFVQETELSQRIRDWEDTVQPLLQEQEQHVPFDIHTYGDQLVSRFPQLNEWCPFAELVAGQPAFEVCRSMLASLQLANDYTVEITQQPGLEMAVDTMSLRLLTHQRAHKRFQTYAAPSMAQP
UniProt Q9HCD5: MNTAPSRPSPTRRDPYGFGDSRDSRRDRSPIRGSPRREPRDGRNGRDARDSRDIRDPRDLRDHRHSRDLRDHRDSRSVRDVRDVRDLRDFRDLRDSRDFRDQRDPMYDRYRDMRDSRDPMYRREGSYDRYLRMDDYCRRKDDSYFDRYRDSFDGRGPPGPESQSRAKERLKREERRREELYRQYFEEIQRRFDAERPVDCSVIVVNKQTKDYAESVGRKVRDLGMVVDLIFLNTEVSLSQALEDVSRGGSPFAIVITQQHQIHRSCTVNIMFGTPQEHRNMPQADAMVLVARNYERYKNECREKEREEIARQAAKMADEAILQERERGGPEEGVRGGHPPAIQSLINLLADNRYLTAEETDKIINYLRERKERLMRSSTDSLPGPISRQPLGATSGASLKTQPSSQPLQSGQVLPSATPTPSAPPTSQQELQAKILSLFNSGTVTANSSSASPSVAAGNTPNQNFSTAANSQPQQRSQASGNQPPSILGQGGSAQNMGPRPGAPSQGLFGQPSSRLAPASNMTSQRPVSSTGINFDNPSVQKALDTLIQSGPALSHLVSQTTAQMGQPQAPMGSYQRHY
UniProt Q02083: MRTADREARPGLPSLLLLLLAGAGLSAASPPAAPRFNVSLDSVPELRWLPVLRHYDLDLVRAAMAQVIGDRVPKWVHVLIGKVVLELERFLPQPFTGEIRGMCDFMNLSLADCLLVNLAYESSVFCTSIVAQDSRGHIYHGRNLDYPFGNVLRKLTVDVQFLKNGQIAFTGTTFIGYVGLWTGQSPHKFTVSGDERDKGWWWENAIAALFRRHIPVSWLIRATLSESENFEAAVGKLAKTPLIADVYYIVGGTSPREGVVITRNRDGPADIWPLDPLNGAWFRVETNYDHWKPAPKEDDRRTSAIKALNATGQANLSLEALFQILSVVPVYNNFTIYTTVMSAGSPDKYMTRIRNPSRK
UniProt B2RBV5: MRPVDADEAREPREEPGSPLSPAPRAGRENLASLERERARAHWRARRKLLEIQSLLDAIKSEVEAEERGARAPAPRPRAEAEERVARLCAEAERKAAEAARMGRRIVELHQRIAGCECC
UniProt Q9NV92: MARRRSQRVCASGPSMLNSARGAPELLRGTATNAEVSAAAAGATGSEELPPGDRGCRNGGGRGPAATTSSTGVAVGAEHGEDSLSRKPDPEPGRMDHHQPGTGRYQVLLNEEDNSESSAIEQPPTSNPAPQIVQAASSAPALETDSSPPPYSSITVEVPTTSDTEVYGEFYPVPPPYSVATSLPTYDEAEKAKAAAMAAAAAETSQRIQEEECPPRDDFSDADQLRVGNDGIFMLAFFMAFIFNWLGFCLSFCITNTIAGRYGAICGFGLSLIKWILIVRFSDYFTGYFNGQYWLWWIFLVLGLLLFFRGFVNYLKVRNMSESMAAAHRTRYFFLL
UniProt Q9HCH0: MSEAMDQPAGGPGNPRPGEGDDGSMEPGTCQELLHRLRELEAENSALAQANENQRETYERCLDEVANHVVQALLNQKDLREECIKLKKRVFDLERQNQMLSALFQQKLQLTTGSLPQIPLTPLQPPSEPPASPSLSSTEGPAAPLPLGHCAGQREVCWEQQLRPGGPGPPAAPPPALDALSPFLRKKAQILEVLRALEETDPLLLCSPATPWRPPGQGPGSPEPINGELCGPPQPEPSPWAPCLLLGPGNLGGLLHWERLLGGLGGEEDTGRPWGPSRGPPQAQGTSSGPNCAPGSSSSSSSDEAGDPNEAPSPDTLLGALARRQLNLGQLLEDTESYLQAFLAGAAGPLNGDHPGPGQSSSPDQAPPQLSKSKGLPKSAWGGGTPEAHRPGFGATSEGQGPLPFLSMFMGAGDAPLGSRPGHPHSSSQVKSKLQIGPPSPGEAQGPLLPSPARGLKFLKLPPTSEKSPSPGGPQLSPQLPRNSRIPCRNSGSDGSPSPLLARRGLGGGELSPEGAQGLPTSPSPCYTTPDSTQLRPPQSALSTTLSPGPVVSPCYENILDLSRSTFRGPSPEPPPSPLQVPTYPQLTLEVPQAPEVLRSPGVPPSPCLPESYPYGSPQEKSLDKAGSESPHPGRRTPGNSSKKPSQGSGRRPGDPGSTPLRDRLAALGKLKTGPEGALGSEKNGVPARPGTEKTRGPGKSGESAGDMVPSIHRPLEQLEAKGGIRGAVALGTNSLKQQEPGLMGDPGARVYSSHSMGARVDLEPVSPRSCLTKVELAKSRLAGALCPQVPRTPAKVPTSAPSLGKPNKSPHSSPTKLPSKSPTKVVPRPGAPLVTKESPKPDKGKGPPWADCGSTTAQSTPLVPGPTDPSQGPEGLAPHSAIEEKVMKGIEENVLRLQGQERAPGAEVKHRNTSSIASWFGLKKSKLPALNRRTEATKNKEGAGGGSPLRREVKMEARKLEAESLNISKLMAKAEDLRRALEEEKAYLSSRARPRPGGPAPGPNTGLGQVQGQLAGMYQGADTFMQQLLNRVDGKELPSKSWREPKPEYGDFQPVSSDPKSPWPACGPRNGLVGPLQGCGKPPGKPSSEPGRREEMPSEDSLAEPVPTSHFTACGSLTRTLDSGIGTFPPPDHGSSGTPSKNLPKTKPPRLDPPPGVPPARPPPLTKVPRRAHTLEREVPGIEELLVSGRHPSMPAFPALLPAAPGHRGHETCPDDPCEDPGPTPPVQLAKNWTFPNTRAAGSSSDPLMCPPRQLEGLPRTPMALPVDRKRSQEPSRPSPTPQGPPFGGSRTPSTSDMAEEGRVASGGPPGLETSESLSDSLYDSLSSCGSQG
UniProt Q69YL0: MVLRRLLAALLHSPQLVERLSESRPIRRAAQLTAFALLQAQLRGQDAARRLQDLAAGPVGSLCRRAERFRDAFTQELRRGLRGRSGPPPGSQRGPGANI
UniProt O14777: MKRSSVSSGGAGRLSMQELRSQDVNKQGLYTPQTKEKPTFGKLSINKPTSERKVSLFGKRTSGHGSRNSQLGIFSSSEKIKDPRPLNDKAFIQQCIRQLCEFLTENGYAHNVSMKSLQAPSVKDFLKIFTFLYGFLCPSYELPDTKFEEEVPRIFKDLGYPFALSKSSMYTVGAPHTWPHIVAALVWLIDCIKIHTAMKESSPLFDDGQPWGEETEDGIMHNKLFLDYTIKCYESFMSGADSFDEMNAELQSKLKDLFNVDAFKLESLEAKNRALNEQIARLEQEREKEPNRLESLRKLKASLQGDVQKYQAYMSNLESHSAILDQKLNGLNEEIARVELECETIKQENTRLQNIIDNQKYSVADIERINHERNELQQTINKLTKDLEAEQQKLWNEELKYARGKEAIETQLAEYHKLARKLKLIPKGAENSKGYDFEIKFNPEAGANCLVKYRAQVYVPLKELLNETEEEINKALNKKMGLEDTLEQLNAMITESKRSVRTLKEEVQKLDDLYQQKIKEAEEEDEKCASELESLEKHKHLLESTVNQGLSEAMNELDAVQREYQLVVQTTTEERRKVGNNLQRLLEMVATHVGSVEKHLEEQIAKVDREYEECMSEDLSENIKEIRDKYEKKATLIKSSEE

Legend:
Experiment in all cases: log2 fold change, soluble protein after heating vs DMSO (PISA); higher = thermal stabilisation; K562 cells, 10 uM, 30 min; active = over 0.2 and 3.5 SD of the protein, either way, in both replicates (recomputed)
[1] = compound: C/C(=N\NC(=O)C1=CC(=CC=C1)S(=O)(=O)N2CCOCC2)/C3=C(C=CC(=C3)Cl)O
How it was run: (§1)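 Thermal stability values are relative to control samples and come from duplicates. They are expressed as log2 fold changes. For measurement, K562 cells (2×10^6 cells/mL) received 10 μM compound for 30 min, and aliquots were heated for 3 min over 48°C-58°C, pooled, and extracted at 4°C in PBS with 0.5% NP-40. Soluble protein, the supernatant after 21,000xg for 90 min, was quantified by TMTpro 16plex LC-MS/MS with equalised channel sums.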

[2] = compound: C1=CC2=C(C=CC(=C2)/C=C\3/C(=O)NC(=NCC4=CC=CS4)S3)N=C1
How it was run: as §1

[3] = compound: C1=CC2=NC=CN=C2C=C1/C=C/3\C(=O)NC(=O)S3
How it was run: as §1

[4] = compound: C1=CC=C2C(=C1)C3=NNC4=CC=CC(=C43)C2=O
How it was run: as §1

[5] = compound: C1CCN(C1)C(=O)NC2=CC=CC(=C2)NC3=NC=C(C(=N3)NCCC4=CN=CN4)Br
How it was run: as §1

[6] = compound: C1CN(CCC1(CC2=CC=C(C=C2)Cl)N)C3=NC=NC4=C3C=CN4
How it was run: as §1

[7] = compound: C1COCCN1CCN2C3=CC=CC=C3N=C2NC(=O)C4=CC(=CC=C4)[N+](=O)[O-] [IRAK-1-4 Inhibitor I]
How it was run: as §1

[8] = compound: C=CC(=O)N1CCC[C@@H](n2nc(-c3ccc(Oc4ccccc4)cc3)c3c(N)ncnc32)C1 [ibrutinib]
How it was run: as §1

[9] = compound: CC(=O)c1cnc2ccc(-c3cc(Cl)c(O)c(Cl)c3)nc2c1N[C@H]1CC[C@H](CN(C)C)CC1
How it was run: as §1

[10] = compound: CC(C)N(C[C@H]1O[C@@H](n2cnc3c(N)ncnc32)[C@H](O)[C@@H]1O)[C@H]1C[C@@H](CCc2nc3cc(C(C)(C)C)ccc3[nH]2)C1 [pinometostat]
How it was run: as §1

[11] = compound: CC1=C(C(CC(=O)N1)C2=CC=C(C=C2)C(F)(F)F)C(=O)NC3=C(C=C4C(=C3)C=NN4)F
How it was run: as §1

[12] = compound: CC1=C(C2=C(C=C1)C(=O)C3=CC=CC=C3N2CCCN)C
How it was run: as §1

[13] = compound: C1=CC=C(C=C1)C2=NC(=C(N2)C3=CC=NC=C3)C4=CC(=C(C=C4)Cl)O
How it was run: as §1

[14] = compound: CC(C)(C)Cn1c(N)nc2ccc(-c3[nH]c(C(C)(C)C)nc3-c3ccc(F)cc3)nc21 [ralimetinib]
How it was run: as §1

[15] = compound: CC(C)C[C@@H](C=O)NC(=O)[C@H](CC(C)C)NC(=O)[C@H](CC(C)C)NC(=O)OCc1ccccc1
How it was run: as §1

[16] = compound: C1=CC(=C(C=C1Cl)C2=NC3=NC=CN=C3C(=N2)NC4=CC=NC=C4)F
How it was run: as §1

[17] = compound: CC(C)(O)CC(=O)NCCn1ccc2ncnc(Nc3ccc(Oc4cccc(C(F)(F)F)c4)c(Cl)c3)c21
How it was run: as §1

[18] = compound: C#Cc1cccc(Nc2ncnc3cc(OCCOC)c(OCCOC)cc23)c1 [erlotinib]
How it was run: as §1

[19] = compound: C1=CC(=CC=C1C2=NC3=C(N2)C=C(C=C3)C(=O)N)OC4=CC=C(C=C4)Cl
How it was run: as §1

[20] = compound: CC(C)C1=C2N=C(C=C(N2N=C1)NCC3=CC=CC=C3)NCCCCCCN
How it was run: as §1

Measured: log2 fold change

NDUFV1 (UniProt E9PJL9)
inactive: [1] -0.257 | [2] 0.009 | [3] 0.174 | [4] -0.088 | [5] 0.045 | [6] -0.192 | [7] -0.104 | [8] -0.252 | [9] 0.075 | [10] 0.016 | [11] 0.042 | [12] 0.07

MYSM1 (UniProt Q5VVJ2)
inactive: [3] 0.173 | [13] 0.37 | [7] -0.264 | [8] 0.291 | [14] -0.022 | [15] -0.061 | [10] 0.153

NCK2 (UniProt O43639)
inactive: [1] 0.026 | [16] 0.085 | [2] 0.117 | [3] -0.055 | [13] -0.08 | [4] -0.054 | [5] -0.305 | [6] 0.134 | [7] -0.123 | [8] 0.213 | [9] -0.188 | [14] -0.226 | [17] -0.092 | [15] 0.275 | [10] 0.088 | [11] 0.013 | [12] 0.272

NAA40 (UniProt Q86UY6)
inactive: [16] -0.47 | [13] -0.177 | [5] -0.097 | [6] -0.08 | [7] -0.154 | [14] 0.041 | [17] 0.221 | [15] 0.01 | [10] 0.194 | [12] -0.338

NCOA4 isoform 4 (UniProt Q13772)
inactive: [13] -0.076 | [14] 0.463 | [15] 0.692

NAP1L4 (UniProt C9J6D1)
inactive: [1] 0.132 | [2] -0.237 | [4] -0.174 | [7] 0.025 | [9] -0.572 | [10] -0.038

NCCRP1 (UniProt Q6ZVX7)
inactive: [1] -0.216 | [16] -0.02 | [2] 0.29 | [4] -0.291 | [7] -0.311 | [9] -0.358 | [17] 0.309 | [10] -0.12

NDUFC1 (UniProt O43677)
inactive: [18] -0.037 | [1] -0.009 | [16] 0.166 | [19] 0.15 | [2] -0.072 | [4] 0.115 | [9] 0.024 | [17] -0.044 | [20] 0.038

NDUFA7 (UniProt M0R0N0)
inactive: [18] 0.101 | [19] -0.051 | [3] 0.015 | [8] -0.109 | [20] -0.136

NAP1L1 (UniProt B7Z9C2)
inactive: [18] 1.01 | [1] 0.122 | [19] -0.051 | [2] 0.156 | [3] 0.175 | [4] -0.178 | [7] -0.147 | [8] -0.04 | [9] -0.058 | [20] 0.359 | [10] -0.052

NATD1 (UniProt Q8N6N6)
inactive: [1] 0.071 | [2] -0.021 | [4] 0.052 | [9] -0.02 | [11] 0.047

NA isoform 3 (UniProt Q4G0T1)
inactive: [18] 0.019 | [1] 0 | [19] 0.01 | [2] 0.11 | [3] -0.035 | [13] 0.014 | [4] 0.047 | [5] 0.058 | [6] 0.071 | [7] 0.007 | [8] -0.1 | [9] -0.146 | [14] -0.118 | [20] -0.022 | [15] 0.155 | [10] -0.043 | [12] -0.109

NCAPH2 isoform 4 (UniProt Q6IBW4)
inactive: [18] -0.055 | [1] 0.057 | [16] -0.061 | [19] -0.159 | [2] -0.109 | [4] 0.011 | [7] -0.26 | [9] -0.161 | [17] -0.026 | [20] -0.22 | [10] 0.218 | [11] -0.218

NDRG1 (UniProt Q92597)
inactive: [18] 0.152 | [19] 0.019 | [20] -0.014

NCOA5 (UniProt Q9HCD5)
inactive: [18] -0.057 | [19] 0.156 | [13] -0.094 | [7] -0.136 | [14] -0.012 | [20] -0.194 | [15] 0.055 | [10] 0.048

NA (UniProt J3KR12)
inactive: [16] -0.073 | [3] 0.254 | [13] 0.075 | [7] -0.191 | [8] -0.159 | [14] 0.011 | [17] -0.1 | [15] 0.017 | [10] 0.053

NAV1 (UniProt Q8NEY1)
inactive: [18] 0.153 | [1] 0.052 | [16] -0.096 | [19] 0.029 | [2] 0.051 | [13] -0.103 | [4] -0.053 | [5] -0.072 | [6] 0.304 | [7] -0.097 | [9] -0.569 | [14] 0.154 | [17] -0.087 | [20] -0.337 | [15] 0.141 | [10] 0.202 | [11] -0.126 | [12] -0.112

NAAA (UniProt Q02083)
inactive: [18] 0.084 | [19] -0.044 | [13] -0.096 | [7] 0.049 | [14] 0.014 | [20] 0.043 | [15] 0.04 | [10] -0.105 | [11] 0.09

NEK1 isoform 3 (UniProt Q96PY6)
inactive: [18] 0.153 | [1] 0.175 | [19] -0.022 | [2] -0.041 | [13] -0.065 | [4] 0.047 | [7] -0.048 | [9] -0.295 | [14] 0.029 | [20] -0.141 | [15] 0 | [10] 0.169

Taken from above (2 entries):
NCOA5 (UniProt Q9HCD5)
inactive: [18] -0.057 | [19] 0.156 | [13] -0.094 | [7] -0.136 | [14] -0.012 | [20] -0.194 | [15] 0.055 | [10] 0.048

NA (UniProt J3KR12)
inactive: [16] -0.073 | [3] 0.254 | [13] 0.075 | [7] -0.191 | [8] -0.159 | [14] 0.011 | [17] -0.1 | [15] 0.017 | [10] 0.053

Additional results follow:

NA (UniProt B2RBV5)
inactive: [16] -0.068 | [3] -0.015 | [8] 0.069 | [17] -0.037

NDFIP2 (UniProt Q9NV92)
inactive: [18] -0.307 | [19] 0.009 | [13] -0.19 | [5] -0.095 | [6] 0.086 | [14] 0.147 | [20] -0.069 | [15] -0.229 | [12] 0.119

NCKAP5L (UniProt Q9HCH0)
inactive: [13] -0.077 | [7] -0.106 | [14] 0.217 | [15] 0.129 | [10] 0.077

NCBP2AS2 (UniProt Q69YL0)
inactive: [18] 0.033 | [1] 0.104 | [19] 0.054 | [2] 0 | [3] 0.106 | [13] -0.029 | [4] 0.148 | [5] 0.048 | [6] 0.113 | [8] 0.07 | [9] 0.21 | [14] -0.01 | [15] 0.026 | [12] -0.008
active: [20] -0.869

NA, A0A1W2PSA9
inactive: [1] -0.065 | [2] -0.111 | [13] -0.008 | [4] -0.104 | [5] 0.101 | [6] -0.086 | [9] -0.13 | [14] 0.004 | [15] 0.122 | [12] -0.27

NA, A0A2R8Y3M9
inactive: [1] -0.335 | [2] 0.355 | [3] 0.132 | [13] -0.072 | [4] -0.137 | [7] 0.087 | [8] 0.215 | [9] -0.207 | [14] -0.08 | [15] 0.056 | [10] -0.001

NCKIPSD (UniProt Q9NZQ3)
inactive: [18] 0.043 | [1] 0.118 | [19] 0.439 | [2] 0.199 | [13] 0.023 | [4] -0.111 | [9] 0.065 | [14] 0.098 | [20] -0.169 | [15] 0.113

NDC80 (UniProt O14777)
inactive: [18] 0.075 | [1] -0.017 | [16] -0.234 | [19] -0.012 | [2] 0.062 | [13] -0.01 | [4] -0.06 | [5] 0.023 | [6] -0.078 | [7] -0.247 | [9] 0.049 | [14] 0.209 | [17] 0.052 | [20] -0.212 | [15] 0.215 | [10] 0.35 | [11] -0.096 | [12] 0.048

NDRG2 (UniProt G3V392)
inactive: [16] 0.063 | [3] -0.2 | [7] 0.024 | [8] -0.073 | [17] -0.036 | [10] -0.006
